# “And” between values parts separate entries of the source, which are not always exact repeats. Equal values may be shown once. The inconclusive results got no clear call from the source; some entries with a clear call stand among them for comparison. For part of these data: Potencies of inconclusive entries are doubtful fits and often do not repeat. Where a structure was tested more than once in an assay, its records may differ in their call. The source made the active and inactive calls. Unless noted, calls come from the whole dose curve.
# Chains of the proteins cited; added tags and fusions are not shown. Lines headed by an entry give the natural chain unless they say otherwise; changes in a name come on top.
# UniProt P28223, whole entry, looked up: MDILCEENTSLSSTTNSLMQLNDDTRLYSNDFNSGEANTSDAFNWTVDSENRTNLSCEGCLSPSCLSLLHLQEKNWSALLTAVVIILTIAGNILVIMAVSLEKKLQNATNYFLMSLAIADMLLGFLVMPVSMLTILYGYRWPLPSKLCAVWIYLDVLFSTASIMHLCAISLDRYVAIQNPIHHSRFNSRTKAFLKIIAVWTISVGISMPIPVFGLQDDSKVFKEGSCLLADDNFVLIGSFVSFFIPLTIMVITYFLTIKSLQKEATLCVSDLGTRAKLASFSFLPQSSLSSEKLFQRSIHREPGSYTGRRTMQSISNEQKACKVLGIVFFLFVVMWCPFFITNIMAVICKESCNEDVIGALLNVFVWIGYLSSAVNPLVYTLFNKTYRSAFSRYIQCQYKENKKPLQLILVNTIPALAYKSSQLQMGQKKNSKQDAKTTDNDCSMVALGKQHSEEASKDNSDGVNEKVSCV
# UniProt P11229: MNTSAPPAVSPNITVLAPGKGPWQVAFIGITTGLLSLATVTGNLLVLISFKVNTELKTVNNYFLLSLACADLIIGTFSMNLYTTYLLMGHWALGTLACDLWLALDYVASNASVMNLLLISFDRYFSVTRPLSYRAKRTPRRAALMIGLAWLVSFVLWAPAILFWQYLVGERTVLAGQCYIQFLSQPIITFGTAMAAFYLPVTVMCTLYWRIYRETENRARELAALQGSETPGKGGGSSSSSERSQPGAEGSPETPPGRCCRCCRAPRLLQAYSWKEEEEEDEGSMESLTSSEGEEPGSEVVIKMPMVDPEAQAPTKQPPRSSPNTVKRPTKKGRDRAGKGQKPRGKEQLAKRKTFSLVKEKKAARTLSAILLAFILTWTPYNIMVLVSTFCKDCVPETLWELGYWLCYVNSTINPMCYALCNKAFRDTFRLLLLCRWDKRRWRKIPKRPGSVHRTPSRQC
# UniProt P14416, whole entry, looked up: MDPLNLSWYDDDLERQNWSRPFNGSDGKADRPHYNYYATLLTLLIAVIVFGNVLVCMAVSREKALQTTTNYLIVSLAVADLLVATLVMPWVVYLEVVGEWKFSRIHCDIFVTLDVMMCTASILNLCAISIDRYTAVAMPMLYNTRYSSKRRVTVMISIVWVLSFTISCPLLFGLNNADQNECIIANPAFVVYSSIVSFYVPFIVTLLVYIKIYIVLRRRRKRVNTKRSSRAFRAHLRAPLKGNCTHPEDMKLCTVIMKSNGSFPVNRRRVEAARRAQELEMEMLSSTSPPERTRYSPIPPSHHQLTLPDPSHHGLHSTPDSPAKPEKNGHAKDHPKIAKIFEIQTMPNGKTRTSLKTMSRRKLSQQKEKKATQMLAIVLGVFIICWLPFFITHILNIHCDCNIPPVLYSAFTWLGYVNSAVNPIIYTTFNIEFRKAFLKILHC
# What was measured:
# [1] = p53 small molecule agonists, cell-based qHTS assay with rat liver microsomes: qHTS cell viability counter screen (AID 1963580); note: nearly all actives have a fitted effect of over 45% in size; note: potency is the fitted concentration of half-maximal effect
# Procedure, shortened: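 p53RE-bla HCT-116 cells were exposed 16 h at 37 C to compounds with rat liver microsomes (0.5 mg/mL) and NADPH (0.5 mg/mL). Viability was measured in the same wells as ATP content by CellTiter-Glo luminescence.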
# [2] = p53 small molecule agonists, cell-based qHTS assay: qHTS cell viability counter screen (AID 1963581); note: nearly all actives have a fitted effect of over 45% in size; note: potency is the fitted concentration of half-maximal effect
# Procedure, shortened: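 p53RE-bla HCT-116 cells, compounds added 5 h after plating and incubated 16 h at 37 C. Cytotoxicity measured in the same wells as intracellular ATP by CellTiter-Glo luminescence after 30 min at room temperature.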
# [3] = target: 5-hydroxytryptamine receptor 2A (Homo sapiens) (UniProt P28223); assay: 5-hydroxytryptamine receptor 2A (HTR2A) small molecule antagonists, cell-based qHTS assay (AID 1963586); note: nearly all actives have a fitted effect of over 45% in size; note: potency is the fitted concentration of half-maximal effect; for activity, negative = inhibition: % is set by controls: 0 for no effect and ±100 for the full control effect
# Procedure, shortened: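 Antagonist-mode intracellular calcium assay: DOI (4 nM) added after 5 min compound pre-incubation at room temperature to dye-loaded HTR2A-CHO cells. Fluorescence followed for 3 min, sampled every second.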
# [4] = target: Muscarinic acetylcholine receptor M1 (Homo sapiens) (UniProt P11229); assay: Cholinergic receptor muscarinic 1 (CHRM1) small molecule antagonists, cell-based qHTS assay (AID 1963588); note: nearly all actives have a fitted effect of over 40% in size; note: potency is the fitted concentration of half-maximal effect
# Procedure, shortened: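 CHRM1-CHO calcium-flux assay, antagonist mode. Cells were seeded 18 h, dye-loaded 1 h at 37 C and given compound for 5 min at RT, then acetylcholine was added at 50nM. FDSS fluorescence was read 3 min; 15 concentrations, three runs.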
# [5] = cAMP Responsive Elements (CRE) small molecule agonists, cell-based qHTS assay (AID 1963590); conditions: CRE-bla HEK293T, beta-lactamase FRET ratio, 3 h; activation: at 92.4 µM (top of the series) unless noted; note: potency is the fitted concentration of half-maximal effect; for activation: % is set by controls: 0 for no effect and ±100 for the full control effect
# Procedure, shortened: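 CRE-bla HEK 293T cells, 2,000/well in DMEM with 10% dialyzed FBS and 25 mM HEPES, pre-incubated 18 h at 37 C, then exposed to compound 3 h at 37 C. Beta-lactamase reporter read with LiveBLAzer B/G FRET substrate after 2 h at room temperature.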
# [6] = cAMP Responsive Elements (CRE) small molecule antagonists, cell-based qHTS assay (AID 1963591; active = well fitted inhibition curve with a large enough effect in the signal ratio in the repeat runs, not every such curve was filed as active; inconclusive = weak or mixed curves, or effect the other way; the % refers to the signal ratio; note: potency is the fitted concentration of half-maximal effect); conditions: CRE-bla HEK293T, beta-lactamase FRET ratio; activity change, negative = inhibition: at 92.4 µM (top of the series) unless noted
# Procedure, shortened: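 CRE-bla HEK293T cells plated 18 h, then given compound plus NKH477 at 0.25 uM final for 3 h at 37C. Beta-lactamase reporter read with LiveBLAzer B/G FRET substrate after 2 h at room temperature.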
# [7] = target: Beta-2 adrenergic receptor (Homo sapiens) (UniProt P07550); assay: Adrenergic beta2 receptor (ADRB2) small molecule agonists, cell-based qHTS assay (AID 1963593); conditions: CHO-ADRB2 cells, cAMP HTRF, 30 min; note: potency is the fitted concentration of half-maximal effect;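 for activation: CHO cells stably overexpressing human ADRB2; % is set by controls: 0 for no effect and ±100 for the full control effect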
# Procedure, shortened: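 CHO cells stably over-expressing ADRB2 were plated overnight at 37C, then dosed with compounds plus a stimulation mix containing 100uM IBMX and 25uM Ro-20-1724 for 0.5hr at room temperature. cAMP was measured by HTRF competition, 1hr.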
# [8] = target: D(2) dopamine receptor (Homo sapiens) (UniProt P14416); assay: Dopamine D2 receptor (DRD2) small molecule antagonists, cell-based qHTS assay (AID 1963595; active = well fitted inhibition curve with a large enough effect in the signal ratio in the repeat runs, with a control signal flat; inconclusive = weak or mixed curves, or effect the other way; the % refers to the signal ratio; note: potency is the fitted concentration of half-maximal effect); conditions: HEK293-DRD2 cAMP HTRF antagonist mode; activity change, negative = inhibition: at 92.4 µM (top of the series) unless noted
# Procedure, shortened: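 Antagonist mode in DRD2-HEK293 cells: after compound addition with 0.1 mM Ro20-1724, cells received quinpirole (12 nM) and NKH477 (200 nM) for 30 min at room temperature; HTRF cAMP read after 1 h detection.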
# [9] = target: Beta-2 adrenergic receptor (Homo sapiens) (UniProt P07550); assay: Adrenergic beta2 receptor (ADRB2) small molecule antagonists, cell-based qHTS assay (AID 1963592); conditions: CHO-ADRB2 cells, isoproterenol-stimulated cAMP HTRF ratio, 0.5 h; activity change, negative = inhibition: at 92.4 µM (top of the series) unless noted; note: nearly all actives have a fitted effect of over 50% in size; note: potency is the fitted concentration of half-maximal effect; for activity change, negative = inhibition: % is set by controls: 0 for no effect and ±100 for the full control effect
# Procedure, shortened: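 Cells (CHO, stable ADRB2 overexpression) incubated 18-20hr at 37C; compounds added from DMSO; agonist mix (1nM isoproterenol, 100uM IBMX, 25uM Ro-20-1724) added; 0.5hr RT; d2-cAMP and anti-cAMP-cryptate added; 1hr RT; 665/615 nm read.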
# [10] = target: D(2) dopamine receptor (Homo sapiens) (UniProt P14416); assay: Dopamine D2 receptor (DRD2) small molecule agonists, cell-based qHTS assay (AID 1963594); conditions: HEK293-DRD2 cAMP HTRF, agonist mode, 30 min; activation: at 92.4 µM (top of the series) unless noted; note: potency is the fitted concentration of half-maximal effect; nearly all actives have a fitted effect of over 35% in size
# Procedure, shortened: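 HEK293 cells stably expressing human DRD2, pre-treated with PDE inhibitor Ro20-1724 (0.1 mM final) and compound 10 min at room temperature, then stimulated with NKH477 (200nM […]) for 30 min. cAMP read by HTRF (665/620 nm).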
# [11] = p53 small molecule agonists, cell-based qHTS assay (AID 1963582; active = well fitted activation curve with a large enough effect in the signal ratio in the repeat runs, not every such curve was filed as active; inconclusive = weak or mixed curves; the % refers to the signal ratio; note: potency is the fitted concentration of half-maximal effect); conditions: HCT-116 p53RE-bla reporter, beta-lactamase FRET ratio, 16 h; activation: at 66 µM (top of the series) unless noted
# Procedure, shortened: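 p53RE-bla reporter cells, compounds added in DMSO after 5 h plating, incubated 16 h at 37 C. Beta-lactamase read via 2 h room-temperature LiveBLAzer B/G FRET substrate, fluorescence intensity.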
# [12] = target: Muscarinic acetylcholine receptor M1 (Homo sapiens) (UniProt P11229); assay: Cholinergic receptor muscarinic 1 (CHRM1) small molecule agonists, cell-based qHTS assay (AID 1963589); note: % is set by controls: 0 for no effect and ±100 for the full control effect; nearly all actives have a fitted effect of over 35% in size
# Procedure, shortened: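 CHO cells stably expressing human CHRM1 were loaded with calcium dye for 1 h at 37 C, then compound was added in agonist mode. Intracellular calcium fluorescence was followed kinetically at 1 s intervals. Fifteen concentrations were tested in three independent runs.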
# [13] = activation: at 92.4 µM (top of the series) unless noted
compound,measurement,setting,value
CCCN(CCC)c1c([N+](=O)[O-])cc(C(F)(F)F)c(N)c1[N+](=O)[O-],Potency,[1],"inconclusive: 45.6 µM [cytotoxic, single point]"
same,Potency,[2],active: 18.2 µM
same,Potency,[3],"inconclusive: 47.1 µM [inhibitor, single point]"
same,Potency,[4],"inconclusive: 18.7 µM [inhibitor, full curve]"
same,Potency,[5],inconclusive: 27.2 µM
same,Potency,[6],"inconclusive: 24.3 µM [rising, full curve]"
same,Potency,[7]; [13],inactive
same,Potency,[8],"inconclusive: 27.2 µM [inhibitor, single point]"
COc1ccc(CCN2CCC(Nc3nc4ccccc4n3Cc3ccc(F)cc3)CC2)cc1,Potency,[1],active: 26.3 µM
same,Potency,[2],"active: 13.2 µM and inconclusive: 22.3 µM [cytotoxic, single point]"
same,Potency,[5],"inconclusive: 22.2 µM [fluorescent] and inconclusive: 37.6 µM [fluorescent, partial curve, poor fit]"
same,Potency,[9],active: 55.7 µM
same,Potency,[7]; [13],"inconclusive: 49.6 µM [inhibitor, partial curve] and inconclusive: 7.5 µM [inhibitor, full curve]"
same,Potency,[8],inconclusive: 29.8 µM [inhibitor]
CCN(Cc1cccc(S(=O)(=O)O)c1)c1ccc(C(=C2C=CC(=[N+](CC)Cc3cccc(S(=O)(=O)O)c3)C=C2)c2ccc(O)cc2S(=O)(=O)[O-])cc1,Potency,[1],active: 24.8 µM
same,Potency,[2],active: 11.1 µM
same,Potency,[9],"inconclusive: 4.67 µM [falling, partial curve]"
same,Potency,[7]; [13],"inconclusive: 4.67 µM [falling, partial curve]"
same,Potency,[10],inconclusive: 4.86 µM
O=C(C(=O)c1ccc(Br)cc1)c1ccc(Br)cc1,Potency,[1],"inconclusive: 12.8 µM [cytotoxic, single point]"
same,Potency,[11],"inconclusive: 0.0403 µM [falling, single point]"
same,"activity, negative = inhibition",[3],inactive: 10.2% [at 12.7 µM]
same,"activity change, negative = inhibition",[9],inconclusive: 10.4% [at 19 µM]
same,activation,[7]; [13],inconclusive: 31.4% [at 19 µM]
same,Potency,[8],"inconclusive: 8.54 µM [fluorescent, single point]"
CC(C)c1ccccc1O,Potency,[1],inactive
same,Potency,[2],inactive
same,Potency,[5],inactive
same,Potency,[7]; [13],inactive
OC[C@H]1O[C@H](O[C@]2(CCl)O[C@H](CCl)[C@@H](O)[C@@H]2O)[C@H](O)[C@@H](O)[C@H]1Cl,Potency,[1],"inconclusive: 0.163 µM [cytotoxic, single point]"
same,Potency,[2],"inconclusive: 1.82 µM [cytotoxic, single point]"
same,Potency,[5],inactive
same,Potency,[7]; [13],inactive
OCCN1C[C@H](O)[C@@H](O)[C@H](O)[C@H]1CO,Potency,[1],inactive
same,Potency,[2],"inconclusive: 25.1 µM [rising, single point]"
same,Potency,[7]; [13],inactive
CCCCCCCCCCCC[N+](C)(C)CC(=O)[O-],Potency,[1],inactive
same,Potency,[11],"inconclusive: 10.2 µM [rising, partial curve]"
same,Potency,[3],"inconclusive: 47.2 µM [inhibitor, single point]"
same,"activity change, negative = inhibition",[6],inconclusive: 15.8%
c1cc(C(c2ccc(OCC3CO3)cc2)c2ccc(OCC3CO3)cc2)ccc1OCC1CO1 (configuration not stated),Potency,[1],"inconclusive: 45.8 µM [rising, partial curve, poor fit]"
same,Potency,[11],"inconclusive: 32.4 µM [fluorescent, partial curve]"
same,Potency,[4],inactive
same,Potency,[5],inconclusive: 30.6 µM [fluorescent]
same,Potency,[6],"inconclusive: 30.6 µM [fluorescent, partial curve]"
same,"activity change, negative = inhibition",[9],inconclusive: -23.8%
same,activation,[7]; [13],inconclusive: -0.201%
same,Potency,[8],inactive
C=CC/C=C/C/C=C/C/C=C/C,Potency,[1],inactive
same,Potency,[2],"inconclusive: 51.3 µM [rising, partial curve, poor fit]"
same,Potency,[6],inactive
same,Potency,[9],inactive
same,Potency,[7]; [13],inactive
CCCCOCC(C)OCC(C)O (configuration not stated),Potency,[1],"inconclusive: 0.166 µM [rising, full curve]"
same,Potency,[2],inactive
same,Potency,[7]; [13],inactive
Nc1ccc(O)c(N)c1,Potency,[1],"inconclusive: 0.322 µM [cytotoxic, single point]"
same,Potency,[2],"inconclusive: 0.162 µM [cytotoxic, single point]"
same,"activity change, negative = inhibition",[9],inconclusive: -15.7% and inconclusive: 2.44%
same,activation,[7]; [13],inconclusive: -30.3% and inconclusive: -7.97%
same,Potency,[10],inconclusive: 64.3 µM
same,Potency,[8],"inconclusive: 60.7 µM [cytotoxic] and inconclusive: 61.1 µM [cytotoxic, partial curve, poor fit]"
CNC[C@H](O)[C@@H](O)[C@H](O)[C@H](O)CO,Potency,[1],inactive
same,Potency,[2],"inconclusive: 7.93 µM [rising, single point]"
same,Potency,[12],inactive
same,Potency,[5],inactive
same,activation,[7]; at 42.5 µM (top of the series),inconclusive: -12.6%
same,activation,[7]; at 92.4 µM (top of the series),inconclusive: 25.1%
CCOC(=O)/C=C\C(=O)OCC,Potency,[1],"inconclusive: 8.28 µM [cytotoxic, single point] and inconclusive: 51.3 µM [cytotoxic, partial curve, poor fit]"
same,Potency,[2],"inconclusive: 0.415 µM [rising, single point]"
same,activation,[7]; [13],inconclusive: 7.52%
same,activation,[7]; at 92.4 µM (top of the series),inactive: -13.7%

# 4 neighbouring entries from above:
compound,measurement,setting,value
Nc1ccc(O)c(N)c1,Potency,[1],"inconclusive: 0.322 µM [cytotoxic, single point]"
same,Potency,[2],"inconclusive: 0.162 µM [cytotoxic, single point]"
same,"activity change, negative = inhibition",[9],inconclusive: -15.7% and inconclusive: 2.44%
same,activation,[7]; [13],inconclusive: -30.3% and inconclusive: -7.97%

# Reference: PubChem BioAssay (Tox21)
